Measured data: PubChem BioAssay AID1159584 (Peter MacCallum Cancer Centre, 2016)
Assay: 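Knock-downs that harm CDH1-null cells more than parental MCF10A cells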 (primary screen). Cells: human MCF10A breast epithelial cells, parental and CDH1-null. Knock-down reagent: siRNA against human genes. Measured: 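ATP luminescence (CellTiter-Glo) viability per line relative to mean mock wells over all plates, and the ratio of CDH1-null to parental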. Reading the numbers: CDH1-null / parental viability ratio: higher = CDH1-null cells survive relatively better than parental; CDH1-null viability vs mock: higher = more viable CDH1-null cells; parental viability vs mock: higher = more viable parental cells.
The whole screen tested about 18,000 reagents; shown is an unselected part. Reagents against one gene are numbered here. Not stated in the record: the amount of reagent, the time to read-out.

gene	reagent	CDH1-null / parental viability ratio	CDH1-null viability vs mock (fraction of mock)	parental viability vs mock (fraction of mock)
LAMTOR1 (GeneID 55004)	1	0.86	0.6	0.7
STX19 (GeneID 415117)	1	0.72	0.62	0.86
GPR149 (GeneID 344758)	1	0.8	0.86	1.08
USP14 (GeneID 9097)	1	1.42	0.74	0.52
EFNA4 (GeneID 1945)	1	0.92	0.76	0.83
PRR5-ARHGAP8 (GeneID 553158)	1	0.94	1.03	1.1
PSMF1 (GeneID 9491)	1	0.96	0.75	0.78
PCGF6 (GeneID 84108)	1	0.95	0.76	0.8
FOXF1 (GeneID 2294)	1	0.95	0.75	0.79
PRP4K (GeneID 8899)	1	0.84	0.68	0.81
CSNK1G3 (GeneID 1456)	1	0.98	0.97	0.99
BCAM (GeneID 4059)	1	0.66	0.59	0.9
CYB561D2 (GeneID 11068)	1	0.75	0.45	0.6
CWC15 (GeneID 51503)	1	0.59	0.41	0.7
DHFR2 (GeneID 200895)	1	1.02	1.04	1.02
CT47A11 (GeneID 255313)	1	0.91	1	1.1
TRPC3 (GeneID 7222)	1	1.1	0.89	0.81
CELSR1 (GeneID 9620)	1	0.82	0.82	1
CYSLTR1 (GeneID 10800)	1	1.48	1.08	0.73
VPS13A (GeneID 23230)	1	1.01	0.75	0.74
ZNF484 (GeneID 83744)	1	1.14	0.5	0.44
TRDMT1 (GeneID 1787)	1	0.99	0.86	0.87
CAVIN1 (GeneID 284119)	1	1.12	0.82	0.73
RBBP4 (GeneID 5928)	1	1.02	0.84	0.82
RSPO2 (GeneID 340419)	1	0.77	0.64	0.83
RHBDF1 (GeneID 64285)	1	0.8	0.67	0.84
IGFBP3 (GeneID 3486)	1	0.93	0.68	0.73
USP44 (GeneID 84101)	1	1.17	0.94	0.8
ILRUN (GeneID 64771)	1	0.83	0.65	0.78
MVP (GeneID 9961)	1	0.91	0.41	0.45
OSTC (GeneID 58505)	1	0.8	0.66	0.82
QRICH2 (GeneID 84074)	1	1.07	0.62	0.58
ATAD3A (GeneID 55210)	1	1.25	0.55	0.44
PRPF38A (GeneID 84950)	1	1.42	0.34	0.24
COL9A1 (GeneID 1297)	1	0.56	0.4	0.71
TRPM5 (GeneID 29850)	1	1.33	0.81	0.61
HBG1 (GeneID 3047)	1	0.84	0.79	0.94
CDK2AP2 (GeneID 10263)	1	1.39	0.53	0.38
LMBR1 (GeneID 64327)	1	1	1.07	1.07
COTL1 (GeneID 23406)	1	1.11	0.4	0.36
PARN (GeneID 5073)	1	1.18	1.04	0.88
SMN2 (GeneID 6607)	1	1.09	0.61	0.56
AK4 (GeneID 205)	1	1.06	0.55	0.52
AK4 (GeneID 205)	2	0.91	0.73	0.8
UTP20 (GeneID 27340)	1	0.85	0.82	0.96
GPR132 (GeneID 29933)	1	0.67	0.6	0.9
AKR1A1 (GeneID 10327)	1	1.14	0.82	0.72
CDY2B (GeneID 203611)	1	1.47	0.66	0.45
ANAPC11 (GeneID 51529)	1	1.37	0.52	0.38
ZNF107 (GeneID 51427)	1	1.12	0.74	0.66
EDEM2 (GeneID 55741)	1	0.84	0.76	0.9
LRRC57 (GeneID 255252)	1	1.25	0.64	0.51
EPDR1 (GeneID 54749)	1	0.89	0.62	0.7
DNAJC27 (GeneID 51277)	1	0.9	0.52	0.58
OR11H4 (GeneID 390442)	1	1.04	0.94	0.9
MRPL11 (GeneID 65003)	1	1.17	0.61	0.52
USP51 (GeneID 158880)	1	0.79	0.44	0.56
PCNT (GeneID 5116)	1	0.89	0.4	0.45
PLPP5 (GeneID 84513)	1	0.86	0.69	0.8
CPA4 (GeneID 51200)	1	1.11	0.8	0.72
DNASE1L3 (GeneID 1776)	1	0.86	0.74	0.86
TRMT11 (GeneID 60487)	1	1.08	0.82	0.76
AKAP8 (GeneID 10270)	1	0.91	0.6	0.66
ANKEF1 (GeneID 63926)	1	0.74	0.68	0.92
RASA4 (GeneID 10156)	1	1.03	0.89	0.86
KIAA1217 (GeneID 56243)	1	1.43	1.43	1
ACKR2 (GeneID 1238)	1	1.08	0.85	0.79
OR5A1 (GeneID 219982)	1	1.2	1	0.83

Ordered by “parental viability vs mock (fraction of mock)” (descending): some entries from above
gene	reagent	CDH1-null / parental viability ratio	CDH1-null viability vs mock (fraction of mock)	parental viability vs mock (fraction of mock)
EDEM2 (GeneID 55741)	1	0.84	0.76	0.9
EPDR1 (GeneID 54749)	1	0.89	0.62	0.7
ZNF107 (GeneID 51427)	1	1.12	0.74	0.66
DNAJC27 (GeneID 51277)	1	0.9	0.52	0.58
LRRC57 (GeneID 255252)	1	1.25	0.64	0.51
